This experiment deals with histamine-induced skin vascular permeability. The experiment in a line: Inhibitory effect on histamine-induced vascular permeability in mice. It is filed as in vivo, ICR mice. How it is done:
Intragastric administration was performed 1 hour before modeling. The model group was given the corresponding solvent. […] 10% sodium sulfide was used to depilate the back of mice (3 cm×3 cm). The mice were injected 1 ug/0.1 mL of histamine phosphate physiological saline solution into the depilation site one hour after the administration, and injected 0.25% Evans Blue solution 4 ml/kg from the tail vein immediately after the injection. After 30 minutes, the mice were dislocated and sacrificed. The blue-stained part of the skin was removed and perforated (diameter 15 mm), cut into pieces and soaked in 1 ml of acetone-saline (7:3) solution. After 24 h, it was centrifuged (3000 r/min, 10 min) to take the supernatant. The absorbance of the sample was measured with an ultraviolet spectrophotometer at a wavelength of 610 nm and a blank zero calibration with acetone-physiological saline solution.

`Clc1ccc2c(c1)CCc1cccnc1C2=C1CCNCC1` [Desloratadine, desloratadine, reference compound]: for the setting “5 mg/kg, P<0.01”, the “inhibition of histamine-induced skin vascular permeability compared with the model group” value is listed as “significantly inhibited”. Further, the inhibition in vivo at 5 mg/kg (Mus musculus, po, 5 mg/kg intragastric 1 hour before modeling, histamine phosphate 1 ug/0.1 mL, Evans Blue absorbance at 610 nm, read-out: Inhibition rate (%)) came to 58.5%.
